Results reported in paper PMC5829277.
No constants are given. Whether binding was seen depends on the method and setting. Binding can be weak; no strength is given. Sequences can lack the tags named with a protein. For part of these data: Binding seen in cells or lysates may run through a third protein.

biological target: T1, RGB1, BiFC fusion (rice) (UniProt Q40687); assay: split reporter; BiFC, pSPYNE(R)173 and pSPYCE(MR) fusions in Arabidopsis protoplasts, incubated in the dark overnight, confocal fluorescence
T1 sequence: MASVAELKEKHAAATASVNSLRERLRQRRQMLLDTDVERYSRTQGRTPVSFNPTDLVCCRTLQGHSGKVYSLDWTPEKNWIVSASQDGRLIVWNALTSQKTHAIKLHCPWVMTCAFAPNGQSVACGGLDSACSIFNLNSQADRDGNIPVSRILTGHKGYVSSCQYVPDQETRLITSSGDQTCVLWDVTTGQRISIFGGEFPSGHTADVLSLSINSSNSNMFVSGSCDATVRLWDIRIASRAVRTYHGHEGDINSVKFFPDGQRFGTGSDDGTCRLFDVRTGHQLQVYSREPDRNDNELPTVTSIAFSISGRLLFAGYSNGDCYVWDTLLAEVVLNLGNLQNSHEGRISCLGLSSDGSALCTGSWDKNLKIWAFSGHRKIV

| Substance | binding |
| --- | --- |
| GGC2, BiFC fusion (rice) | binds |
| GS3-1, BiFC fusion (rice) | binds |

biological target: T2, RGB1 (G-beta subunit), yeast two-hybrid fusion (rice) (UniProt Q40687); assay: two-hybrid; Matchmaker Two-Hybrid System (Clontech), PGADT7 and PGBKT7 fusions cotransformed into yeast AH109; selected on SD/-LW, interactions on SD/-LWHA
T2 sequence: T1 sequence

| Substance | binding |
| --- | --- |
| GGC2, yeast two-hybrid fusion (rice) | binds |
| GS3-1 (wild-type GS3), yeast two-hybrid fusion (rice) | binds |
| OSR domain of GS3 (amino acid 1-94), yeast two-hybrid fusion (rice) (domain or fragment) | binds |

biological target: T3, RGB1-nLuc (rice) (UniProt Q40687); assay: split reporter; split firefly luciferase, competition: RGB1-nLuc plus cLuc-DEP1 or cLuc-GGC2 transiently expressed in protoplasts of ZH11, GS3-1OE and GS3-4OE, Luc normalised to 35S::REN
T3 sequence: T1 sequence

| Substance | binding |
| --- | --- |
| GS3-1 overexpressed in GS3-1OE transgenic rice | binds |
| GS3-4 overexpressed in GS3-4OE transgenic rice (domain or fragment) | binds |
| cLuc-GGC2 (rice) | binds |

biological target: T3, RGB1-nLuc (rice); assay: split reporter; split firefly luciferase (RGB1-nLuc plus cLuc fusions), transient expression in rice protoplasts, Luc normalised to 35S::REN

| Substance | binding |
| --- | --- |
| C-terminal cysteine-rich domain of GS3 (TV), split-luciferase fusion (rice) (domain or fragment) | no binding |
| cLuc-GGC2 (rice) | binds |
| cLuc-GS3-1 (rice) | binds |
| cLuc-GS3-4 (rice) (domain or fragment) | binds |

biological target: T4, BD-RGB1 (pBRIDGE bait), yeast three-hybrid (rice) (UniProt Q40687); assay: yeast three-hybrid; pGADT7 prey vectors cotransformed with pBRIDGE bait vectors in yeast AH109; selected on SD/-LWM, interactions on SD/-LWMH, 5 mM 3-aminotriazole; liquid β-galactosidase assay with CPRG
T4 sequence: T1 sequence

| Substance | binding |
| --- | --- |
| AD-GGC2 (pGADT7-GGC2), yeast three-hybrid (rice) | binds |
| AD-GS3 (pGADT7-GS3), yeast three-hybrid (rice) | binds |
| GS3 expressed as the third protein in the yeast three-hybrid assay (rice) | binds |
